Library screening results

Amino acid sequences for entries named in this document (tags omitted).
UniProt E9BF75, entry or part of it: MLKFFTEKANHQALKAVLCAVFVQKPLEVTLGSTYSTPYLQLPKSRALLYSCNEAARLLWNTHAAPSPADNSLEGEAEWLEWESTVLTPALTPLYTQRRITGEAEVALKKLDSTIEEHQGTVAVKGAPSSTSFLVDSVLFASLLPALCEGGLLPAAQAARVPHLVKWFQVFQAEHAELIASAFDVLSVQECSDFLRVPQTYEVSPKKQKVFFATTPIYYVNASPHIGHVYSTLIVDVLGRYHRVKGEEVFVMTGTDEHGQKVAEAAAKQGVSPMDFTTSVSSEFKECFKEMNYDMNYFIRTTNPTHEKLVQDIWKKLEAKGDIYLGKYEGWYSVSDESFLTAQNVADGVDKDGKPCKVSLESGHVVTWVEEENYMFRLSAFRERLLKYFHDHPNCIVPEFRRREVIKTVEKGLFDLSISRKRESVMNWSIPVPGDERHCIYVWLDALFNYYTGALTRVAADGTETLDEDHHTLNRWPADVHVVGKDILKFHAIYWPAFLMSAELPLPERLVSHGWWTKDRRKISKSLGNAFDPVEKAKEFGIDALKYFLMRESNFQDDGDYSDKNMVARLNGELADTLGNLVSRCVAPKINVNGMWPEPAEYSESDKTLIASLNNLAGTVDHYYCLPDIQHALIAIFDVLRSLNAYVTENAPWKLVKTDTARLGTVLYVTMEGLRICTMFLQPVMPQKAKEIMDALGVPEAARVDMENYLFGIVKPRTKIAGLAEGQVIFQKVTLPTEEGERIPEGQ

Source: ChEMBL document CHEMBL3988442, “University of Dundee, Small-Polar-MMV Screening Library” (2021).

Results are percentages, as filed.
How 0% and 100% were set is not recorded. Most values in the screen are low, and negative values occur.
This is an unselected part of the compounds tested.

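Methionyl-tRNA synthetase (putative), Leishmania donovani (UniProt E9BF75). Primary screen of methionyl-tRNA synthetase; the read-out is not stated. The test concentration is not given. Values are per cent inhibition. Size under these conditions: about 68,000 compounds, about 24 of them at 50% or above in at least one test.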

| Compound | inhibition |
|---|---|
| `Cn1cncc1CN1CCC2(CC1)COCCN(S(C)(=O)=O)C2` | 6.593 |
| `Cc1cc(C[S+]([O-])CC(=O)Nc2c(C)cccc2C)no1` (stereo not given) | 19.03 |
| `CCOCC(O)CN1CCN(C(=O)c2ccccc2F)CC1` (stereo not given) | 17.05 |
| `CC(=O)c1ccc(OCC(=O)c2cccn2C)cc1` | 18.62 |
| `Cn1cc(C[C@H]2[C@H](N3CCOCC3)CCN2C(=O)c2ccoc2)cn1` | 7.692 |
| `CC(C)c1noc(CCC(=O)NC2CCS(=O)(=O)C2)n1` (stereo not given) | 13.86 |
| `COc1ccc(-c2nc(CNC3CCc4nc(C)nn4C3)no2)cc1` (stereo not given) | 14.8 |
| `Cc1ccc(SCCN(C)C(=O)c2cn([C@H]3CC[C@@H](N)CC3)nn2)cc1` | 5.575 |
| `O=S(=O)(NCC1OCCc2cn(CC3CCOCC3)nc21)C1CC1` (stereo not given) | 5.109 |
| `CCS(=O)(=O)N1CCC2(CCC(N3CCCC3)c3ccccc32)CC1` (stereo not given) | 13.77 |
| `FC(F)(F)c1nc(NC2CCCCC2)c2ccccc2n1` | 7.143 |
| `CS(=O)(=O)N1CCO[C@@H]2CN(C(=O)c3ccnnc3)C[C@@H]2C1` | 13.11 |
| `Cc1occc1C(=O)N1CCOCC2(CCN(Cc3nccs3)C2)C1` (stereo not given) | -1.575 |
| `CC(=O)c1cccc(OCCCC(=O)N(C)Cc2cnc(C)s2)c1` | 11.96 |
| `CCCS(=O)(=O)N1CCC2(CCCN(Cc3cccc(F)c3F)C2=O)C1` (stereo not given) | 19.88 |
| `Cc1cnc(N2C[C@H]3CN(Cc4csc(C)n4)C(=O)[C@H]3C2)nc1` | 7.317 |
| `NCCN1CCC(c2nnc(Cn3ccnc3)n2C2CC2)CC1` | 9.61 |
| `CC(NC(=O)N1CCc2ccccc2C1)c1nncn1C` (stereo not given) | 11.87 |
| `CCOc1ccc(CNCCCn2ccnc2)cc1OC` | 11.69 |
| `CCN1CC(COc2ccccc2)Oc2ncccc2S1(=O)=O` (stereo not given) | 6.216 |
| `CCCn1nc(C(=O)NCCc2nnc3n2CCC3)ccc1=O` | 13.48 |
| `O=C(c1ncoc1C1CCCO1)N1CC2(CCCC2)c2ccccc21` (stereo not given) | 12.41 |
| `O=C(Nc1cccc(OCC(F)F)n1)c1ccncc1F` | 14.63 |
| `CC(C)C1CN(C(=O)c2ccc3nccnc3c2)CCS1` (stereo not given) | 11.18 |
| `O=C(CN1CCCCCC1=O)NCC1CCN(c2ccccc2)C1` (stereo not given) | 12.21 |
| `COc1cccc(OC)c1OCCN1C(=O)CCNC1=O` | 17.12 |
| `Nc1nc(NCCO)cc(N2CCc3c([nH]c4ccccc34)C2)n1` | 27.42 |
| `CN(CC(=O)NC(C)(C#N)C1CC1)Cc1nc2ccccc2n1C` (stereo not given) | 6.522 |
| `CSCCC(NC(=O)c1nc(SC)ncc1Cl)C(=O)O` (stereo not given) | 4.595 |
| `Cc1nn(C)c2c(N3CCCC3)nc(C3CC3)nc12` | -4.556 |
| `Cc1noc(-c2cccnc2N2CCOC(C)(c3cnn(C)c3)C2)n1` (stereo not given) | 19.83 |
| `CCn1cc(-c2nn3c(C(C)C)nnc3s2)c(C)n1` | 13.98 |
| `CCCC(=O)NCC(Cc1cccc(F)c1)N1CCCC1=O` (stereo not given) | 19.25 |
| `COc1ncc(-c2nccn2C(C)CCn2cccn2)cn1` (stereo not given) | 10.67 |
| `C[C@@H]1CN(Cc2ccsc2)C[C@]12CCN(Cc1cccnc1)C2=O` | -0.3367 |
| `CC(C)CN1CCCC2(CCN(c3ccc(C#N)cn3)C2)C1` (stereo not given) | 15.33 |
| `O=S(=O)(CCNC1CCc2ncnn2C1)c1ccc(Cl)cc1` (stereo not given) | 21.86 |
| `O=C(c1ccsc1)N1CCN(CC(O)c2cccc(F)c2)CC1` (stereo not given) | 3.542 |
| `O=C(NCCCn1nc2ccccn2c1=O)NC(C1CC1)C1CC1` | 15.09 |
| `c1ccc(CO[C@H]2CO[C@@]3(CCN(Cc4ccoc4)C3)C2)nc1` | 15.35 |
| `CC(=O)N1CCC(CCc2ccnc(Nc3ccccn3)c2)CC1` | 6.522 |
| `Cc1cc(C(=O)NCc2ccccn2)no1` | 0 |
| `Cc1noc(C)c1CN1C[C@@H]2COC[C@@H](CC(=O)N3CCCO3)[C@@H]2C1` | 18.41 |
| `CC(=O)N(Cc1ncc(C)o1)C1CCN(CCOc2ccccc2)C1` (stereo not given) | 4.885 |
| `Cc1c(F)cc(C(=O)O)cc1S(=O)(=O)Nc1ccc(C#N)cc1` | 1.247 |
| `O=C(c1ccncc1)N1CCOC2(CCCN(c3nncs3)C2)C1` (stereo not given) | 6.234 |
| `Cc1nc(CN2CCC(CNC(=O)C3(C)CCCC3)CC2)oc1C` | 11.39 |
| `CN1CCN(Cc2nnc(C3CCN(C(CO)CO)CC3)n2C)CC1` | 13.91 |
| `NC(=O)COc1cccc(C(=O)N2CCCC(n3cccn3)C2)c1` (stereo not given) | 6.667 |
| `CC(C)Oc1ccccc1CNC(=O)N(C)C(C)CS(C)(=O)=O` (stereo not given) | 12.54 |
| `CCn1ccnc1CN1CCC(CCC(=O)Nc2ccccc2Cl)CC1` | 2.963 |
| `CCOc1ccnc(N2CCN(C(=O)c3cccc(C#N)c3)CC2)n1` | 15.75 |
| `c1ccc(-c2nnc(CN3CCCC3Cn3cncn3)o2)cc1` (stereo not given) | 26.7 |
| `Cn1c(C(N)=O)cc2c1CN(C(=O)C1CCCN(C3CCCC3)C1)CC2` (stereo not given) | 12.26 |
| `O=C1CNc2ncnc(N3CCN(c4ccccc4F)CC3)c2N1` | 8.782 |
| `COCCCN1C(=O)CC[C@H]2CN(c3ccc(C(N)=O)cn3)CC[C@H]21` | 3.015 |
| `CCn1nnnc1-c1cccc(NC(N)=O)c1` | 16.99 |
| `CN(CC(=O)NCC(F)(F)F)Cc1cccc2c1OCCO2` | 0.9119 |
| `Cc1n[nH]c(=O)c2c(NC(=O)CN3CCOCC3C)oc(C)c12` (stereo not given) | -0.5222 |
| `CC(=O)N1C[C@H](c2cc(O)nc(C)n2)[C@@H](c2ccccc2F)C1` | 19.69 |
| `CCCc1n[nH]c(C2CN(Cc3nnc(C4CC4)n3C)CCO2)n1` (stereo not given) | 7.216 |
| `O=C(c1ccnnc1)N1CC[C@@H](O)[C@@H]1Cc1ccccc1` | 8.654 |
| `O=C(Nc1cnccn1)[C@H]1C[C@H]2OCC[C@H]2N(c2ncc(F)cn2)C1` | 12.68 |
| `Cn1ncc2c1CCCC2NCc1cc(Br)cs1` (stereo not given) | 18.06 |
| `CN(C(=O)c1cccn1C)C1CCC(NC(=O)OC(C)(C)C)CC1` (stereo not given) | 15.27 |
| `Cc1n[nH]c(C)c1C1CCCN1C(=O)Cc1cccc(F)c1` (stereo not given) | 10.95 |
| `O=C(c1ccc2c(c1)OCO2)N1CCC(C(=O)O)(c2ccccc2)CC1` | 12.57 |
| `CC(C)c1cc(NCC(O)c2ccccn2)n2nccc2n1` (stereo not given) | 8.541 |
| `CCNC(=O)N1CC[C@H]2CC(=O)N(CC(N)=O)CC[C@H]2C1` | 1.648 |
| `COCCN(C)C(=O)Nc1ccn(-c2cccc(C(F)(F)F)c2)n1` | 9.424 |
| `O=C(NCCNC(=O)C1CCCCC1)NCCn1cccc1` | 12.81 |
| `O=C(NC(CO)CO)c1coc(COc2cccc(F)c2)n1` | 10.04 |
| `O=C(c1ccc(C2CCCN2)s1)N1CCC2(CCCO2)CC1` (stereo not given) | -0.5587 |
| `O=C(NCCCO)Nc1cccc(I)c1` | 16.49 |
| `COCCNC(=O)CN1CCC(N2CCN(C)C2=O)CC1` | 15.49 |
| `Cc1noc(C)c1CN1CCC2(CC1)NC(=O)CC2c1ccncc1` (stereo not given) | 2.614 |
| `Cn1nc(C2CC2)c2c1NC(=O)CC2c1cc(CN2CCCC2)cs1` (stereo not given) | 24.53 |
| `O=C(CCc1nc2ccccc2[nH]1)NC1CCOC2(CCOCC2)C1` (stereo not given) | 6.527 |
| `CNCc1cn(CC2CCN(CC(C)(C)CN3CCCC3)CC2)nn1` | 6.03 |

The first 10 entries again:

* Cn1cncc1CN1CCC2(CC1)COCCN(S(C)(=O)=O)C2 | 6.593%
* Cc1cc(C[S+]([O-])CC(=O)Nc2c(C)cccc2C)no1 (stereo not given) | 19.03%
* CCOCC(O)CN1CCN(C(=O)c2ccccc2F)CC1 (stereo not given) | 17.05%
* CC(=O)c1ccc(OCC(=O)c2cccn2C)cc1 | 18.62%
* Cn1cc(C[C@H]2[C@H](N3CCOCC3)CCN2C(=O)c2ccoc2)cn1 | 7.692%
* CC(C)c1noc(CCC(=O)NC2CCS(=O)(=O)C2)n1 (stereo not given) | 13.86%
* COc1ccc(-c2nc(CNC3CCc4nc(C)nn4C3)no2)cc1 (stereo not given) | 14.8%
* Cc1ccc(SCCN(C)C(=O)c2cn([C@H]3CC[C@@H](N)CC3)nn2)cc1 | 5.575%
* O=S(=O)(NCC1OCCc2cn(CC3CCOCC3)nc21)C1CC1 (stereo not given) | 5.109%
* CCS(=O)(=O)N1CCC2(CCC(N3CCCC3)c3ccccc32)CC1 (stereo not given) | 13.77%